Laboratory results from article PMC8782528.
No constants are given. Whether binding was seen depends on the method and setting. In cells and extracts the contact can be indirect. These calls come from enrichment with a bait or labelling near it, and not all partners need be listed. Sequences can lack the tags named with a protein.

The chains behind the UniProt entries cited, without tags or fusion partners.
UniProt Q8N6T3: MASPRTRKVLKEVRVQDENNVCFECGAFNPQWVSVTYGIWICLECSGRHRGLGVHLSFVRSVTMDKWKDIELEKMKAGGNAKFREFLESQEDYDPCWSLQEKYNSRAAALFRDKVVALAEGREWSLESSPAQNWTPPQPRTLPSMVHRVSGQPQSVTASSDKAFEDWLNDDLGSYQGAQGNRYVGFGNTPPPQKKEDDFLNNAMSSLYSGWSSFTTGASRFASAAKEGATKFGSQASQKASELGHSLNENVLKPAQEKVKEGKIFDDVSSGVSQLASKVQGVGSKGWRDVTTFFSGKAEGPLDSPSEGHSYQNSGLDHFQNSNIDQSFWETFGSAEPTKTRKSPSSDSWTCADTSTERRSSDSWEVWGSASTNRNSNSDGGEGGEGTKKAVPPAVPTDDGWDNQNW
UniProt Q9UKV8: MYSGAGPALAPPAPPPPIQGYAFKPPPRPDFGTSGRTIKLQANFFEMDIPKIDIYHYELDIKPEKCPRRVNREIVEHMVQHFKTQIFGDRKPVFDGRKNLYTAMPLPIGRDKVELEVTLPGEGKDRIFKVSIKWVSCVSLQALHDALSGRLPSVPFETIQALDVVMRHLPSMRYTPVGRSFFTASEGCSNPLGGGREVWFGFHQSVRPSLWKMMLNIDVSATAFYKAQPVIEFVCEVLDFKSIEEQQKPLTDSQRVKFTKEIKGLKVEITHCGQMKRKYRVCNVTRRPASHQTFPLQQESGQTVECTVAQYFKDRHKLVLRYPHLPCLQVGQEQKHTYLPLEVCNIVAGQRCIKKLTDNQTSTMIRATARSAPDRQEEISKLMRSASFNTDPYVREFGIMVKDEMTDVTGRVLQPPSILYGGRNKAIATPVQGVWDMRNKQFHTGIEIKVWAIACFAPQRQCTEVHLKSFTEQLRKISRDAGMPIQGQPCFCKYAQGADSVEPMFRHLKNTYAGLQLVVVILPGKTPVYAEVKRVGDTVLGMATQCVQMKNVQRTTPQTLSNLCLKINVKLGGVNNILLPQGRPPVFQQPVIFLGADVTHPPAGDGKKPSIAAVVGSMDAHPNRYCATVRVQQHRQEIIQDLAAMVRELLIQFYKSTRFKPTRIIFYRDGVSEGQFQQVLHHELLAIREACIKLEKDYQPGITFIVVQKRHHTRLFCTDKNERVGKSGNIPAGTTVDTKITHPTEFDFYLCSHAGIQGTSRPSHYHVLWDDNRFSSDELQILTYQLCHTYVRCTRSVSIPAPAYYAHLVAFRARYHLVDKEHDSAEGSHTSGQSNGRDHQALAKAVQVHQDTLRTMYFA
UniProt Q96EK7: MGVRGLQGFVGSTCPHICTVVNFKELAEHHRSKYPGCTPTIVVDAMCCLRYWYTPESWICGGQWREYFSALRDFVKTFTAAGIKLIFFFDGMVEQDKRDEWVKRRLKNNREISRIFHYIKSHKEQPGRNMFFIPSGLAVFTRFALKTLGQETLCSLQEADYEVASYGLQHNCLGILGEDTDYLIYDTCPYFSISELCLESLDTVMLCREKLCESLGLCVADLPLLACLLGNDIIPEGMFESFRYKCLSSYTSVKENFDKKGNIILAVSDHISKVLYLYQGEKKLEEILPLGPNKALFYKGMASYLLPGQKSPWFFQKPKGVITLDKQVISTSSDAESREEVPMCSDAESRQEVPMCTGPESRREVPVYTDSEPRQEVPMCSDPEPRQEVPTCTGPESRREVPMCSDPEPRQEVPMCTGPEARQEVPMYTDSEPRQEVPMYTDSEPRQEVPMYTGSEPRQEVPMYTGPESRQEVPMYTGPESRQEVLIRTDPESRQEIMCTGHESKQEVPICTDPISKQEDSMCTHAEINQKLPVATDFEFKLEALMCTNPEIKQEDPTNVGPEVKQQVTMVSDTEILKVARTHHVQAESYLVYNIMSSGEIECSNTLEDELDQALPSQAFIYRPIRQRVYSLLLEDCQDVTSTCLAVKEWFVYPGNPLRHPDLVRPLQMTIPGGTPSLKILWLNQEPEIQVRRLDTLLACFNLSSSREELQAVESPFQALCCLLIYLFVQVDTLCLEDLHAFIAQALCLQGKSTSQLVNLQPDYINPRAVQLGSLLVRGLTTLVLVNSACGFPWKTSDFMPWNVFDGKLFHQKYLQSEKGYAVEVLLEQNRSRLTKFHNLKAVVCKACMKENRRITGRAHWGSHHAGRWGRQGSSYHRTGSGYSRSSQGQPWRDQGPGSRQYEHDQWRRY
UniProt O75420: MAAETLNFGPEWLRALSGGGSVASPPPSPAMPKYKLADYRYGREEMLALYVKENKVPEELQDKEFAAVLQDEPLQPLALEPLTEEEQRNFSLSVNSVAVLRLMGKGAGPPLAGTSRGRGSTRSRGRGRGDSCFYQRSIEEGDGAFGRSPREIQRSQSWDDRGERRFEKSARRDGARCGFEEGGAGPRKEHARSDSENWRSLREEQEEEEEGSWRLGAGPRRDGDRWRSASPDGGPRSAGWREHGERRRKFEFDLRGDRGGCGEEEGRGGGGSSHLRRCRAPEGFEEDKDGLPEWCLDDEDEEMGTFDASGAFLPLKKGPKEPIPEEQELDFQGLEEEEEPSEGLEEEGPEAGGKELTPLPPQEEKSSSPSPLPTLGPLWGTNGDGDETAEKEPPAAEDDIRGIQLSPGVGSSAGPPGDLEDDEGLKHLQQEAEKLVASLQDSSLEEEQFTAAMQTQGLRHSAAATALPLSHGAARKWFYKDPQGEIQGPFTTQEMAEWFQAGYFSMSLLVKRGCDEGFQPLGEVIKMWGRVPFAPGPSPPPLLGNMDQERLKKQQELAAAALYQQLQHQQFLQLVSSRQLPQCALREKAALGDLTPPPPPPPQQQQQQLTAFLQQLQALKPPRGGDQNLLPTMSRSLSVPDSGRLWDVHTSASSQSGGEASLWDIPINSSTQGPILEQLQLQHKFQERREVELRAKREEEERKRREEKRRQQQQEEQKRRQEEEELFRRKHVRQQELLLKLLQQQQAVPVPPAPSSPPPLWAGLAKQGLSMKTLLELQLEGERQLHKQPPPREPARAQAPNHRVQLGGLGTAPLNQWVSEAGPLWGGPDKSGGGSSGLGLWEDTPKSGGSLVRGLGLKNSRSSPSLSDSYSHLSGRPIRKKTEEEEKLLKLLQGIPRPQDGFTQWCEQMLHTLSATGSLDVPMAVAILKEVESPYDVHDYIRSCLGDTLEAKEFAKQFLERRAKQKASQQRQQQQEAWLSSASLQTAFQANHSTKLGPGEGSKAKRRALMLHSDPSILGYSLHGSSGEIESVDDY
UniProt Q9HD34: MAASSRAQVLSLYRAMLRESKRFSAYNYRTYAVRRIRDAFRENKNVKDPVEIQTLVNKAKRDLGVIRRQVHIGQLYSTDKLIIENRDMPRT
UniProt Q5JSZ5: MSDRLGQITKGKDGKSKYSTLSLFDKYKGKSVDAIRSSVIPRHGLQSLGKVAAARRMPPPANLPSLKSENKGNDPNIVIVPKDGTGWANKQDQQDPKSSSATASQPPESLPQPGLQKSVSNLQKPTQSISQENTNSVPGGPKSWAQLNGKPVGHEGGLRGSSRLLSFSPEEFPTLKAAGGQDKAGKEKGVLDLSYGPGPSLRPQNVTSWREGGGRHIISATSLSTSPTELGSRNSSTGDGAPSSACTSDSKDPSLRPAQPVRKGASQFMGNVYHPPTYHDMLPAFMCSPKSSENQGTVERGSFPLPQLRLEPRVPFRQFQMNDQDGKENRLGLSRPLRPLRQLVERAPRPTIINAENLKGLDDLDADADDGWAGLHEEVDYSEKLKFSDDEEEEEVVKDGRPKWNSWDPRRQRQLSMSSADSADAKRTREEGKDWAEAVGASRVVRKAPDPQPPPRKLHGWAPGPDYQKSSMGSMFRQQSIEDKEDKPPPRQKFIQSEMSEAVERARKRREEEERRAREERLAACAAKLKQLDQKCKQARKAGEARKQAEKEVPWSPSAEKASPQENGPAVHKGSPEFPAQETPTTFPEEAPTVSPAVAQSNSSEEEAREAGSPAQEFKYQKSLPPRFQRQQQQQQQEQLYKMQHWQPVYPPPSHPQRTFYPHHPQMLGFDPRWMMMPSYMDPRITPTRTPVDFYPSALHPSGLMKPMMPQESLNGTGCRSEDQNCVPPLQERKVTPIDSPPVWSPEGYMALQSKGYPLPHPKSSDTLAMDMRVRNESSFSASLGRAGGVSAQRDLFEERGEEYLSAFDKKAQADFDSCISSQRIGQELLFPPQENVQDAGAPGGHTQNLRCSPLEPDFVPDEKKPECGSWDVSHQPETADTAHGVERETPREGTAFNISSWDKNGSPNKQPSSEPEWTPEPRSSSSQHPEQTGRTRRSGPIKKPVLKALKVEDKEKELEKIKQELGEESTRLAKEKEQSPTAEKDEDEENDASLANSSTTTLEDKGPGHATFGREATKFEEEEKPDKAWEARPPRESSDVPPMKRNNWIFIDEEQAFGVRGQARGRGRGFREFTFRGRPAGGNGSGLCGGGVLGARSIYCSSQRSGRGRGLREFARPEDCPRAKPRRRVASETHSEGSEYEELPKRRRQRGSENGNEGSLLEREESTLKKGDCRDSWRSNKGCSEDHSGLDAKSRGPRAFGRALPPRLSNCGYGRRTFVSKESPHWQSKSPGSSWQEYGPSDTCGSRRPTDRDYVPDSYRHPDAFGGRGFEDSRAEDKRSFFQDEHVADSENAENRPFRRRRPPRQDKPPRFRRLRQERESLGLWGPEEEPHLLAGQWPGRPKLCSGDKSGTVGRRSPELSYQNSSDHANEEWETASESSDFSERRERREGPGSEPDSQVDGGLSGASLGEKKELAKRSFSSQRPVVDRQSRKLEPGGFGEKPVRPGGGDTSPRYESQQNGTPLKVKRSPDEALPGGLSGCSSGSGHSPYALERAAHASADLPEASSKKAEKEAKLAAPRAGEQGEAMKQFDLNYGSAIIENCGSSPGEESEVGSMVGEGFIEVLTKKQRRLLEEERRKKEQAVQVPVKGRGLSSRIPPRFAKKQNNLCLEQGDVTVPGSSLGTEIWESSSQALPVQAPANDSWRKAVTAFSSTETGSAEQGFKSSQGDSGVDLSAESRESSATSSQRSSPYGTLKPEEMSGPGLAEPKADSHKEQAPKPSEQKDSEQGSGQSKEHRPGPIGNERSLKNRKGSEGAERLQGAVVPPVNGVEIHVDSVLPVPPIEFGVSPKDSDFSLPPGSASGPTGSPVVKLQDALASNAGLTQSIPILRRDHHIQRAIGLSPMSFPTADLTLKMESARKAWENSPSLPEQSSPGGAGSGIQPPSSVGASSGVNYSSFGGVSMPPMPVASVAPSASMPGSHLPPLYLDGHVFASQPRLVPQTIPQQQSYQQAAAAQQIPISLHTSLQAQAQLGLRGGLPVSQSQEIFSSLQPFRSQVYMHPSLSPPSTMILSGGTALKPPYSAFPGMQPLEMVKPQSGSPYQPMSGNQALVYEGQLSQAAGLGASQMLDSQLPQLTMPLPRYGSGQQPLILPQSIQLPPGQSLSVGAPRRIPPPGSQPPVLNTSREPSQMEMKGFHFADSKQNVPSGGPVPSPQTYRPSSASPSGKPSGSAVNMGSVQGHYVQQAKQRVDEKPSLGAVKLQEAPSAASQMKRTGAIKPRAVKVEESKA
UniProt Q8TD19: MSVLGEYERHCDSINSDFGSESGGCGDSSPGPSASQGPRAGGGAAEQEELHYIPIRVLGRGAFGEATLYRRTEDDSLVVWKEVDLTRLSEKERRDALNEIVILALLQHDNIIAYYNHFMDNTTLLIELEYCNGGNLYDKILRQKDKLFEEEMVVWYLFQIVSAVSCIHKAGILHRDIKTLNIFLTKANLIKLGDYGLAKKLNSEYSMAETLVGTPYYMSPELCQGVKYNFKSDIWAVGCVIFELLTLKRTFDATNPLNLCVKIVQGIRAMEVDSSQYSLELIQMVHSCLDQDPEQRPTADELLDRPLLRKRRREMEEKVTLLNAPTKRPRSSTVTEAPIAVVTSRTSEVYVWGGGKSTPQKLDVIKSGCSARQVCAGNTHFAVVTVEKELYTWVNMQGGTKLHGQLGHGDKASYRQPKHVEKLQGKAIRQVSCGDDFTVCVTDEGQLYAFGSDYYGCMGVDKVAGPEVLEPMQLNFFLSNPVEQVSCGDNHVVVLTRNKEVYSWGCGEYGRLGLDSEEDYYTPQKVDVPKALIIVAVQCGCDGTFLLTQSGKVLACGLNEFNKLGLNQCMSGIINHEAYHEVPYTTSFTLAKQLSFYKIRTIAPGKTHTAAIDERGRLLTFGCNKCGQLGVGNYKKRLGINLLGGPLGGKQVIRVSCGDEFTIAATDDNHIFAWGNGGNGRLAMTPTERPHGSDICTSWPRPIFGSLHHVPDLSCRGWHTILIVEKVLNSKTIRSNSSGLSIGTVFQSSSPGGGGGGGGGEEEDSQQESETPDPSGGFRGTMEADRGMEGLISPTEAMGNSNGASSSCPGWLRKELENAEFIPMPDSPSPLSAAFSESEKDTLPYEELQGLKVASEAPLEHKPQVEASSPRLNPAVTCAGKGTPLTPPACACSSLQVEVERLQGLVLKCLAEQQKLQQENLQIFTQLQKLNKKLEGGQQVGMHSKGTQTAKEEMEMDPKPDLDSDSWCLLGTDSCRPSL

T1: Epstein-Barr virus (EBV) BGLF2 protein, FLAG-tagged (Epstein-Barr virus) (UniProt P0CK53)
T1 sequence: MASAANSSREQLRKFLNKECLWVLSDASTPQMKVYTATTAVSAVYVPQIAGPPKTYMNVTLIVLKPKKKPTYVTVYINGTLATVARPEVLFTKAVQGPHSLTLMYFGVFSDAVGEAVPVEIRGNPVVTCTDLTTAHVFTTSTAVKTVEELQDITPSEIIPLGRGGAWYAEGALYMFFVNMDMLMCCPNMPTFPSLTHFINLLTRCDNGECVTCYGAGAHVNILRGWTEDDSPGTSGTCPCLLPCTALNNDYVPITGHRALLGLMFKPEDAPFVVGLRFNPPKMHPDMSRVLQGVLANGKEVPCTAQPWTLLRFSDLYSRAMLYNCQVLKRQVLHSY

B1: UBAP2 (protein, UniProt Q5T6F2 1-1119)
chain: MMTSVSSDHCRGAREKPQISAAQSTQPQKQVVQATAEQMRLAQVIFDKNDSDFEAKVKQLMEVTGKNQDECIVALHDCNGDVNKAINILLEGNSDTTSWETVGCKKKNFAKENSENKENREKKSEKESSRGRGNNNRKGRGGNRGREFRGEENGIDCNQVDKPSDRGKRARGRGFGRGRGRGAGRFSTQGMGTFNPADYSDSTSTDVCGTKLVVWEAAQNGADEGTELASNTHNIAQDLSNKSSYGLKGAWKNSVEEWTTEDWTEDLSETKVFTASSAPAENHILPGQSIDLVALLQKPVPHSQASEANSFETSQQQGFGQALVFTNSQHNNQMAPGTGSSTAVNSCSPQSLSSVLGSGFGELAPPKMANITSSQILDQLKAPSLGQFTTTPSTQQNSTSHPTTTTSWDLKPPTSQSSVLSHLDFKSQPEPSPVLSQLSQRQQHQSQAVTVPPPGLESFPSQAKLRESTPGDSPSTVNKLLQLPSTTIENISVSVHQPQPKHIKLAKRRIPPASKIPASAVEMPGSADVTGLNVQFGALEFGSEPSLSEFGSAPSSENSNQIPISLYSKSLSEPLNTSLSMTSAVQNSTYTTSVITSCSLTSSSLNSASPVAMSSSYDQSSVHNRIPYQSPVSSSESAPGTIMNGHGGGRSQQTLDTPKTTGPPSALPSVSSLPSTTSCTALLPSTSQHTGDLTSSPLSQLSSSLSSHQSSLSAHAALSSSTSHTHASVESASSHQSSATFSTAATSVSSSASSGASLSSSMNTANSLCLGGTPASASSSSSRAAPLVTSGKAPPNLPQGVPPLLHNQYLVGPGGLLPAYPIYGYDELQMLQSRLPVDYYGIPFAAPTALASRDGSLANNPYPGDVTKFGRGDSASPAPATTPAQPQQSQSQTHHTAQQPFVNPALPPGYSYTGLPYYTGMPSAFQYGPTMFVPPASAKQHGVNLSTPTPPFQQASGYGQHGYSTGYDDLTQGTAAGDYSKGGYAGSSQAPNKSAGSGPGKGVSVSSSTTGLPDMTGSVYNKTQTFDKQGFHAGTPPPFSLPSVLGSTGPLASGAAPGYAPPPFLHILPAHQQPHSQLLHHHLPQDAQSGSGQRSQPSSLQPKSQASKPAYGNSPYWTN
B2: AAMP (protein, UniProt Q13685 1-434)
chain: MESESESGAAADTPPLETLSFHGDEEIIEVVELDPGPPDPDDLAQEMEDVDFEEEEEEEGNEEGWVLEPQEGVVGSMEGPDDSEVTFALHSASVFCVSLDPKTNTLAVTGGEDDKAFVWRLSDGELLFECAGHKDSVTCAGFSHDSTLVATGDMSGLLKVWQVDTKEEVWSFEAGDLEWMEWHPRAPVLLAGTADGNTWMWKVPNGDCKTFQGPNCPATCGRVLPDGKRAVVGYEDGTIRIWDLKQGSPIHVLKGTEGHQGPLTCVAANQDGSLILTGSVDCQAKLVSATTGKVVGVFRPETVASQPSLGEGEESESNSVESLGFCSVMPLAAVGYLDGTLAIYDLATQTLRHQCQHQSGIVQLLWEAGTAVVYTCSLDGIVRLWDARTGRLLTDYRGHTAEILDFALSKDASLVVTTSGDHKAKVFCVQRPDR
B3: GIGYF2 (protein, UniProt Q6Y7W6 1-1299)
chain: MAAETQTLNFGPEWLRALSSGGSITSPPLSPALPKYKLADYRYGREEMLALFLKDNKIPSDLLDKEFLPILQEEPLPPLALVPFTEEEQRNFSMSVNSAAVLRLTGRGGGGTVVGAPRGRSSSRGRGRGRGECGFYQRSFDEVEGVFGRGGGREMHRSQSWEERGDRRFEKPGRKDVGRPNFEEGGPTSVGRKHEFIRSESENWRIFREEQNGEDEDGGWRLAGSRRDGERWRPHSPDGPRSAGWREHMERRRRFEFDFRDRDDERGYRRVRSGSGSIDDDRDSLPEWCLEDAEEEMGTFDSSGAFLSLKKVQKEPIPEEQEMDFRPVDEGEECSDSEGSHNEEAKEPDKTNKKEGEKTDRVGVEASEETPQTSSSSARPGTPSDHQSQEASQFERKDEPKTEQTEKAEEETRMENSLPAKVPSRGDEMVADVQQPLSQIPSDTASPLLILPPPVPNPSPTLRPVETPVVGAPGMGSVSTEPDDEEGLKHLEQQAEKMVAYLQDSALDDERLASKLQEHRAKGVSIPLMHEAMQKWYYKDPQGEIQGPFNNQEMAEWFQAGYFTMSLLVKRACDESFQPLGDIMKMWGRVPFSPGPAPPPHMGELDQERLTRQQELTALYQMQHLQYQQFLIQQQYAQVLAQQQKAALSSQQQQQLALLLQQFQTLKMRISDQNIIPSVTRSVSVPDTGSIWELQPTASQPTVWEGGSVWDLPLDTTTPGPALEQLQQLEKAKAAKLEQERREAEMRAKREEEERKRQEELRRQQEEILRRQQEEERKRREEEELARRKQEEALRRQREQEIALRRQREEEERQQQEEALRRLEERRREEEERRKQEELLRKQEEEAAKWAREEEEAQRRLEENRLRMEEEAARLRHEEEERKRKELEVQRQKELMRQRQQQQEALRRLQQQQQQQQLAQMKLPSSSTWGQQSNTTACQSQATLSLAEIQKLEEERERQLREEQRRQQRELMKALQQQQQQQQQKLSGWGNVSKPSGTTKSLLEIQQEEARQMQKQQQQQQQHQQPNRARNNTHSNLHTSIGNSVWGSINTGPPNQWASDLVSSIWSNADTKNSNMGFWDDAVKEVGPRNSTNKNKNNASLSKSVGVSNRQNKKVEEEEKLLKLFQGVNKAQDGFTQWCEQMLHALNTANNLDVPTFVSFLKEVESPYEVHDYIRAYLGDTSEAKEFAKQFLERRAKQKANQQRQQQQLPQQQQQQPPQQPPQQPQQQDSVWGMNHSTLHSVFQTNQSNNQQSNFEAVQSGKKKKKQKMVRADPSLLGFSVNASSERLNMGEIETLDDY
B4: NECAP2 (protein, UniProt Q9NVZ3 1-263)
chain: MEESGYESVLCVKPDVHVYRIPPRATNRGYRAAEWQLDQPSWSGRLRITAKGQMAYIKLEDRTSGELFAQAPVDQFPGTAVESVTDSSRYFVIRIEDGNGRRAFIGIGFGDRGDAFDFNVALQDHFKWVKQQCEFAKQAQNPDQGPKLDLGFKEGQTIKLNIANMKKKEGAAGNPRVRPASTGGLSLLPPPPGGKTSTLIPPPGEQLAVGGSLVQPAVAPSSGGAPVPWPQPNPATADIWGDFTKSTGSTSSQTQPGTGWVQF

target: T1, Epstein-Barr virus (EBV) BGLF2 protein, FLAG-tagged (Epstein-Barr virus); assay: affinity purification with mass spectrometry; BGLF2-FLAG expressed in 293T cells, recovered on M2 anti-FLAG resin from lysate in modified RIPA buffer (250 mM NaCl), 4 h at 4°C; co-purifying proteins by LC-MS/MS; two experiments, compared with empty FLAG plasmid and the CRAPome

Question: For ARFGAP1 (from UniProt Q8N6T3 1-406), which binding is on record?
Answer: binds

Question: Which binding does the source give for Argonaute 1 (from UniProt Q9UL18 1-857) here?
Answer: binds

Question: Argonaute 2 (from UniProt Q9UKV8 1-859) was tested. Which binding did it give?
Answer: binds

Question: For DIS3L (from UniProt Q8TF46 1-1054), which binding is on record?
Answer: binds

Question: EIF4E2 (from UniProt O60573 1-245) was tested. Which binding did it give?
Answer: binds

Question: How did the binding turn out when FAM120B (from UniProt Q96EK7 1-910) was run?
Answer: binds

Question: FAM204A (from UniProt Q9H8W3 1-233) was tested. Which binding did it give?
Answer: binds

Question: For GIGYF1 (from UniProt O75420 1-1035), which binding is on record?
Answer: binds

Question: How did the binding turn out when KBTBD6 (from UniProt Q86V97 1-674) was run?
Answer: binds

Question: How did the binding turn out when LYRM4 (from UniProt Q9HD34 1-91) was run?
Answer: binds

Question: For NFS1 (human (endogenous in 293T)), which binding is on record?
Answer: binds

Question: Which binding does the source give for PRRC2B (from UniProt Q5JSZ5 1-2229) here?
Answer: binds

Question: Which binding does the source give for PRRC2C (from UniProt Q9Y520 1-2896) here?
Answer: binds

Question: How did the binding turn out when SNX9 (from UniProt Q9Y5X1 1-595) was run?
Answer: binds

Question: “TNRC6A (GW182) (from UniProt Q8NDV7 1-1962)” was tested. Which binding did it give?
Answer: binds

Question: With TNRC6B (from UniProt Q9UPQ9 1-1833) as the molecule, how does the binding read?
Answer: binds

Question: How did the binding turn out when TNRC6C (from UniProt Q9HCJ0 1-1936) was run?
Answer: binds

Question: Which binding does the source give for UBAP2L (from UniProt Q14157 1-1087) here?
Answer: binds

Question: With ZNFX1 (from UniProt Q9P2E3 1-1918) as the molecule, how does the binding read?
Answer: binds

Question: For ZSCAN21 (from UniProt Q9Y5A6 1-473), which binding is on record?
Answer: binds

Question: “cellular NIMA-related protein kinase (HNEK9) (from UniProt Q8TD19 1-979)” was tested. Which binding did it give?
Answer: binds

Question: With B1 as the molecule, how does the binding read?
Answer: binds

Question: B2 was tested. Which binding did it give?
Answer: binds

Question: With B3 as the molecule, how does the binding read?
Answer: binds

Question: B4 was tested. Which binding did it give?
Answer: binds
